At least one structure is not confirmed: it was looked up by name or label, or the drawing left a doubt.
Test: Flash point (JIS-K2265)
Format: physicochemical

Structure (SMILES): COCC(C)OC1CCCCC1O (stereo not shown) [Example 3, 2-hydroxycyclohexyloxymethoxypropane]
- Flash point: 124 °C
